The values below come from patent US20080166749A1, “Fluorescent Protein Sensors of Post-Translational Modifications” (INVITROGEN CORPORATION, priority 1998, published 2008).

The nature of this data set: Relative fluorescence of purified GFP phosphorylation mutants before phosphorylation. The conditions noted are these: for Relative fluorescence as a % of GFP mutant S65T: more drastically altered N-terminal phosphorylation sites, before phosphorylation; for Relative fluorescence as a % of wild type: phosphorylation sites at the N-terminus, engineered into S65T GFP.

As for “−3MRRRRSIIIIF: S65T GFP with N-terminal phosphorylation site MRRRRSIIIIF, N-terminus extended by three (phosphorylation site inserted at the N-terminus)”, the “Relative fluorescence as a % of GFP mutant S65T” value stood at 0.6%. As for “1MSRRDSCF: S65T GFP with N-terminal phosphorylation site MSRRDSCF (phosphorylation site inserted at the N-terminus)”, the “Relative fluorescence as a % of wild type” value was 43%.

“−2MRRRRSIIIF: S65T GFP with N-terminal phosphorylation site MRRRRSIIIF, N-terminus extended by two (phosphorylation site inserted at the N-terminus)”: the “Relative fluorescence as a % of GFP mutant S65T” value was 0.7%.

Regarding “1MRKGSCLF: S65T GFP with N-terminal phosphorylation site MRKGSCLF (phosphorylation site inserted at the N-terminus)”, the “Relative fluorescence as a % of wild type” value was determined as 40%. Regarding “1MSKRRDSL: GFP with N-terminal phosphorylation site MSKRRDSL; 7% of wild type fluorescence (phosphorylation site inserted at the N-terminus)”, the “fluorescence relative to the wild type protein” value was 7% and the “Relative fluorescence as a % of wild type” value was determined as 7%.

“1MRKGSLLF: S65T GFP with N-terminal phosphorylation site MRKGSLLF (phosphorylation site inserted at the N-terminus)”: the “Relative fluorescence as a % of wild type” value came out at 52%. Same read-out and setting: for “1MRDSCLF: S65T GFP with N-terminal phosphorylation site MRDSCLF (phosphorylation site inserted at the N-terminus)” the value was 27%. Turning to “1IMRRRRSI1: S65T GFP with N-terminal phosphorylation site MRRRRSII (phosphorylation site inserted at the N-terminus)”, the “Relative fluorescence as a % of GFP mutant S65T” value amounted to 5.1%. With “1MRRESLLF: S65T GFP with N-terminal phosphorylation site MRRESLLF (phosphorylation site inserted at the N-terminus)”, the “Relative fluorescence as a % of wild type” value stood at 30%.
